Measured values as given in the supplement of paper PMC10849652.
The list shows a part of the results.

By UniProt entry, the sequences of proteins in these tests, tags left out. Where a name states a change or a piece, a line headed by the entry shows the natural chain unless it says otherwise.
UniProt Q13951, whole entry, looked up: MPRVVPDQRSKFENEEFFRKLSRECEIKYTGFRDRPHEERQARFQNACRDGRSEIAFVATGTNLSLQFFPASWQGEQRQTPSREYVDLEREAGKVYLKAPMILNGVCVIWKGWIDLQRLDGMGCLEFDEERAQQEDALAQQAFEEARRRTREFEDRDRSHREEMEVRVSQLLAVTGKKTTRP
UniProt Q8N350: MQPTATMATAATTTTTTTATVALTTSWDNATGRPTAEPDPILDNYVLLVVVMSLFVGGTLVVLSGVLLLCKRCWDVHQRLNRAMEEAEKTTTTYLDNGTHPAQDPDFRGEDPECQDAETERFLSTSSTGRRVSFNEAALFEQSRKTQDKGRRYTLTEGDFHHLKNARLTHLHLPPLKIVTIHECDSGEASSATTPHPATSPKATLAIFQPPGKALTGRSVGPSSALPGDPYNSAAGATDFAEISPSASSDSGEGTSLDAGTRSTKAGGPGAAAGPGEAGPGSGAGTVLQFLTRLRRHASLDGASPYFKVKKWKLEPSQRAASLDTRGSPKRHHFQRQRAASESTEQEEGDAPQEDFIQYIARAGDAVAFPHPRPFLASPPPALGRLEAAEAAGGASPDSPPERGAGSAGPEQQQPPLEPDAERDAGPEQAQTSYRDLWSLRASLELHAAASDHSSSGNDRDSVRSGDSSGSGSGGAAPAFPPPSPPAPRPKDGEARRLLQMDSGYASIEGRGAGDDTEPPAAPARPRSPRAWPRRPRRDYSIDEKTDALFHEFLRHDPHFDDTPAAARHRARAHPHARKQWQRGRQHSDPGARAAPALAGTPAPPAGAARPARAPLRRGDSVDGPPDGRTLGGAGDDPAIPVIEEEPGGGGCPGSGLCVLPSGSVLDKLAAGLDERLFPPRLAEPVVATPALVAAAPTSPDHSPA
UniProt P55210: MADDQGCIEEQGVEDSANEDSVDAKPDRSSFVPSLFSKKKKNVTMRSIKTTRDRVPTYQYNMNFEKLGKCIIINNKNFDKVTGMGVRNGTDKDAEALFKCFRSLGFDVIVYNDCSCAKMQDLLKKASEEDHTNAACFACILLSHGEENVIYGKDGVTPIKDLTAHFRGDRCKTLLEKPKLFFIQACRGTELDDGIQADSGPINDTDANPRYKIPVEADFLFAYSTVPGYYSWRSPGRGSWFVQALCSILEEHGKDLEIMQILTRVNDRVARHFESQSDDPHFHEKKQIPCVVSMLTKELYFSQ
UniProt Q9P0B6: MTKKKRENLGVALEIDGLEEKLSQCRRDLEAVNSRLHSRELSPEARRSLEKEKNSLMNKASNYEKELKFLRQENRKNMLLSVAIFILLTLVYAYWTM
UniProt P30305: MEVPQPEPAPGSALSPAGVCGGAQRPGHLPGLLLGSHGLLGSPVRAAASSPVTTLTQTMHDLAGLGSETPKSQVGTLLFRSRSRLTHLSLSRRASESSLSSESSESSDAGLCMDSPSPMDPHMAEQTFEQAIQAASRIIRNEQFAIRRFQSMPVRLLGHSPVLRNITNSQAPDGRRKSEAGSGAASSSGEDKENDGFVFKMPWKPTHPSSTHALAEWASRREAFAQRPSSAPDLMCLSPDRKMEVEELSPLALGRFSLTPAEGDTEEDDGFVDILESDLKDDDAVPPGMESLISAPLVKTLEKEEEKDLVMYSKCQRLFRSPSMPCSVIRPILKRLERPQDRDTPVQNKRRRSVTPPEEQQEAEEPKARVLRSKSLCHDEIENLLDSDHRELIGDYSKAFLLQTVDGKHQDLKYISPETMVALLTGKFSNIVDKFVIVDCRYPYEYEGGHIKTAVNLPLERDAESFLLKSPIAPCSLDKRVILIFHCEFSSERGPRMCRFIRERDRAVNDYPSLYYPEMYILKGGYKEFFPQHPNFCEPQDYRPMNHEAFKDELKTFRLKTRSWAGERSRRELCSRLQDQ
UniProt O95273: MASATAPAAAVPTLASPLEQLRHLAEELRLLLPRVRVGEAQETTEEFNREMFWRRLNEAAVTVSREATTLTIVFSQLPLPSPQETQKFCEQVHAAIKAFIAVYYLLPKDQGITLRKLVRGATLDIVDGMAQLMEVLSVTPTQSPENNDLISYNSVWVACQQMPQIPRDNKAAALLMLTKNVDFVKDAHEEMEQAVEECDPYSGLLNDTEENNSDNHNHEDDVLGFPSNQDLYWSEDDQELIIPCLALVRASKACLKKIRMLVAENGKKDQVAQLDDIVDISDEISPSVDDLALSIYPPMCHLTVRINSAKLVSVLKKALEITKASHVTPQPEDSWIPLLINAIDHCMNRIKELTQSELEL

Assays:
Test in all cases: log2 fold change, soluble protein after heating vs DMSO (PISA); higher = thermal stabilisation; K562 cells, 10 uM, 30 min; active = over 0.2 and 3.5 SD of the protein, either way, in both replicates (recomputed)
[1] = compound: CC[C@@H]1C(=O)N(C)c2cnc(Nc3ccc(C(=O)NC4CCN(C)CC4)cc3OC)nc2N1C1CCCC1
Outline: (§1)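 K562 cells at 2×10^6 cells/mL were treated with 10 μM compound for 30 min. Aliquots were heated for 3 min across 48°C-58°C, pooled, and extracted in PBS with 0.5% NP-40 at 4°C; soluble protein was the supernatant after 21,000xg for 90 min. Soluble protein was quantified by TMTpro 16plex LC-MS/MS with channel sums equalised, and reported as log2 fold change in thermal stability against DMSO controls, with values from duplicates.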

[2] = compound: CC[C@H](C)N1C=C(C2=C(C=C(C=C21)C3=CN=C(C=C3)N4CCNCC4)C(=O)NCC5=C(C=C(NC5=O)C)C)C
Outline: as §1

[3] = compound: CCn1c(C(=O)N(C2CC2)C2CC2)cc2c3c(ncn3C)c(Nc3cc(C)n(C)n3)nc21
Outline: as §1

[4] = compound: CN(C)CC(=O)Nc1ccc2[nH]c(=O)c3ccccc3c2c1
Outline: as §1

rosiglitazone = compound: CN(CCOC1=CC=C(C=C1)C[C@H]2C(=O)NC(=O)S2)C3=CC=CC=N3 (racemic) [rosiglitazone]
Outline: as §1

[5] = compound: CN1C2=C(C3=C1C(=O)N(N=C3)CC4=CC(=CC=C4)N)SC(=C2)S(=O)C
Outline: as §1

saracatinib = compound: CN1CCN(CCOc2cc(OC3CCOCC3)c3c(Nc4c(Cl)ccc5c4OCO5)ncnc3c2)CC1 [saracatinib]
Outline: as §1

alvocidib = compound: CN1CC[C@H](c2c(O)cc(O)c3c(=O)cc(-c4ccccc4Cl)oc23)[C@H](O)C1 [alvocidib]
Outline: as §1

Tubastatin A = compound: CN1CCc2c(c3ccccc3n2Cc2ccc(C(=O)NO)cc2)C1 [Tubastatin A]
Outline: as §1

[6] = compound: CNC(=O)C1=CC=CC=C1NC2=NC(=NC=C2Cl)NC3=C(C=C(C=C3)N4CCOCC4)OC
Outline: as §1

defactinib = compound: CNC(=O)c1ccc(Nc2ncc(C(F)(F)F)c(NCc3nccnc3N(C)S(C)(=O)=O)n2)cc1 [defactinib]
Outline: as §1

rucaparib = compound: CNCc1ccc(-c2[nH]c3cc(F)cc4c3c2CCNC4=O)cc1 [rucaparib]
Outline: as §1

[7] = compound: CNc1nc(-c2ccc3c(N)n[nH]c3c2)cc(N2C[C@@H](C(=O)NC3CCCCC3)CC[C@H]2C)n1
Outline: as §1

encorafenib = compound: COC(=O)N[C@@H](C)CNc1nccc(-c2cn(C(C)C)nc2-c2cc(Cl)cc(NS(C)(=O)=O)c2F)n1 [encorafenib]
Outline: as §1

[8] = compound: COC(=O)[C@H](CCSC)NC(=O)C1=C(C=C(C=C1)NC[C@H](CS)N)C2=CC=CC=C2
Outline: as §1

epoxomicin = compound: CC[C@H](C)[C@@H](C(=O)N[C@@H]([C@@H](C)O)C(=O)N[C@@H](CC(C)C)C(=O)[C@]1(CO1)C)NC(=O)[C@H]([C@@H](C)CC)N(C)C(=O)C [epoxomicin]
Outline: as §1

[9] = compound: CCn1cc(-c2ccnc3[nH]c(-c4cccc(CN(C)C)c4)cc23)c(-c2ccc(NC(=O)N(C)C)cc2)n1
Outline: as §1

[10] = compound: CN1CCC(CNc2ccc3ncc(-c4cccc(OC(F)(F)F)c4)n3n2)CC1
Outline: as §1

sotrastaurin = compound: CN1CCN(c2nc(C3=C(c4c[nH]c5ccccc45)C(=O)NC3=O)c3ccccc3n2)CC1 [sotrastaurin]
Outline: as §1

volasertib = compound: CC[C@@H]1C(=O)N(C)c2cnc(Nc3ccc(C(=O)N[C@H]4CC[C@H](N5CCN(CC6CC6)CC5)CC4)cc3OC)nc2N1C(C)C [volasertib]
Outline: as §1

Measured: log2 fold change

CBFB (UniProt Q13951)
inactive: [1] -0.175 | [2] 0.042 | [3] -0.03 | [4] 0.111 | rosiglitazone 0.03 | [5] 0 | saracatinib -0.182 | alvocidib -0.03 | Tubastatin A 0.007 | [6] -0.002 | defactinib -0.06 | rucaparib 0.031 | [7] 0.009 | encorafenib 0.044 | [8] -0.04

CBARP (UniProt Q8N350)
inactive: [1] -0.081 | [2] 0.147 | epoxomicin -0.084 | [9] -0.058 | [4] -0.126 | rosiglitazone -0.004 | [5] 0.054 | [10] -0.06 | saracatinib 0.109 | sotrastaurin 0.026 | alvocidib -0.046 | Tubastatin A 0.188 | defactinib 0.005 | rucaparib 0.118 | [7] 0.103 | encorafenib -0.172 | [8] 0.021

CASP7 isoform 3 (UniProt P55210)
inactive: [1] 0.014 | [2] 0.017 | epoxomicin 0.222 | [9] -0.569 | [5] 0.032 | [10] -0.697 | saracatinib 0.185 | [6] 0.151 | rucaparib -0.013 | [7] 0.254 | encorafenib 0.014

CCDC167 (UniProt Q9P0B6)
inactive: [1] 0.069 | volasertib -0.12 | [2] -0.029 | epoxomicin 0.019 | [9] 0.13 | [5] -0.095 | [10] 0.033 | saracatinib -0.05 | sotrastaurin -0.018 | Tubastatin A -0.063 | [6] -0.006 | rucaparib 0.021 | [7] 0.104 | encorafenib -0.037

CDC25B isoform 4 (UniProt P30305)
inactive: [1] -0.003 | volasertib -0.049 | [2] -0.266 | epoxomicin 0.1 | [9] -0.092 | [4] -0.021 | [10] -0.081 | sotrastaurin -0.018 | [6] -0.019 | defactinib -0.25 | rucaparib 0.054 | encorafenib -0.059 | [8] 0.087

CCNDBP1 (UniProt O95273)
inactive: [1] 0.088 | [2] 0.133 | [9] -0.036 | [4] -0.094 | [5] 0.013 | [10] -0.048 | saracatinib 0.078 | sotrastaurin -0.209 | Tubastatin A 0.001 | [6] 0.115 | defactinib -0.107 | rucaparib -0.002 | [7] -0.04 | encorafenib 0.062 | [8] -0.027
